# The other results are listed elsewhere or left out.
# Tested on: T1, CTL2-GFP (C. trachomatis L2/434/Bu, GFP-expressing)
# T1 construct: L2/434/Bu, GFP-expressing
# Set-up: species or system HeLa; Intracellular C. trachomatis growth in HeLa cells, bulk GFP fluorescence relative to DMSO
# Details: bulk GFP, single well; 28.5 h, 10 µM; inhibitor
row,SMILES,% of control remaining [%]
1,CC(=O)Nc1cccc(-n2cnnc2SCC2CCOCC2)c1 [CBK306354],141.964
2,CCOc1ccc(-c2csc(NC(=O)CC)n2)cc1 [CBK287764],89.4704
3,COC(=O)c1c(NC(=S)Nc2cccc(S(=O)(=O)N3CCOCC3)c2)sc2c1CCC2 [CBK267054],149.368
4,Cc1cc(COC(=O)Nc2ccc3nc(C)ccc3c2)cc(C)n1 [CBK200127],119.999
5,Cc1cc(S(=O)(=O)NC(=O)CC2CCOc3ccccc32)c(C)o1 (stereo not shown) [CBK304499],113.573
6,CC(C)c1ccc(/C=C/C(=O)NCc2ccc(C#N)cc2)cc1 [CBK149642],100
7,COC(=O)CN1C(=O)N2CCCN=C2c2ccc(Cl)cc21 [CBK284402],108.214
8,O=C(O)c1ccccc1C(=O)Nc1c(-c2ccccc2)nc2ccccn12 [CBK287041],115.146
9,CC(C)Nc1nc2cc(Cl)c(Cl)cc2nc1OCc1cccnc1 [CBK115743],117.02
10,COc1cccc2ncn(C(C)c3nc(C)sc3C)c(=O)c12 (stereo not shown) [CBK306570],112.446
11,COc1cc(CN2CCN(c3ccccn3)CC2)ccc1OCc1ccccc1 [CBK261906],116.355
12,Cc1ccc2cc(CN(Cc3ccc(N(C)C)cc3)C(=O)NC3CCCCC3)c(=O)[nH]c2c1C [CBK132070],58.3918
13,CCCc1ccc(S(=O)(=O)N2CCN(Cc3ccc4c(c3)OCO4)CC2)cc1 [CBK074735],99.4912
14,CNCS(=O)(=O)C(F)(F)S(=O)(=O)N(C)C [CBK018820],153.564
15,Cc1cccc(CNc2nccnc2-c2cccs2)c1 [CBK036808],98.0282
16,Cc1nc(C(=O)N2CCC3(CCCCOc4ccccc4C(=O)NCCNC3=O)CC2)co1 [CBK292089],163.495
17,CC(C)CNC(=O)C1CCN(C(=O)c2cccc(F)c2)CC1 [CBK304338],139.591
18,CC(=O)N1CCN(CC(O)Cn2c3ccccc3c3ccccc32)CC1 (stereo not shown) [CBK305588],98.9151
19,CC(=O)N1CCC(O)(C2(C)OC(NC3C4CC5CC(C4)CC3C5)=NC2=O)CC1 (stereo not shown) [CBK138181],116.713
20,Clc1cc2nc(Sc3ccccn3)c(N3CCCC3)nc2cc1Cl [CBK093754],100.947
21,COc1ccc(C(=O)NNC(=O)c2cccc(O)c2)cc1 [CBK262594],85.736
22,COc1ccc(NC(=O)c2cc(C(C)C)n(-c3nc4ccccc4s3)n2)cc1 [CBK287667],122.761
23,CC1(C)Cc2nc(-c3ccccc3)nc(SCC(=O)NCCc3ccccc3)c2CO1 [CBK267205],177.319
24,Cc1ccc(NC(=S)N2CCCC2C(=O)O)c(C)c1 (stereo not shown) [CBK007148],100
25,CN(C)/N=C\c1cccc(O)c1 [CBK015814],151.869
26,CC(=O)Nc1ccc(-c2nc(-c3ccc(-c4ccccc4)cc3)c(-c3ccc(-c4ccccc4)cc3)[nH]2)cc1 [CBK262620],100

# Six consecutive entries already listed, for reference:
row,SMILES,% of control remaining [%]
21,COc1ccc(C(=O)NNC(=O)c2cccc(O)c2)cc1 [CBK262594],85.736
22,COc1ccc(NC(=O)c2cc(C(C)C)n(-c3nc4ccccc4s3)n2)cc1 [CBK287667],122.761
23,CC1(C)Cc2nc(-c3ccccc3)nc(SCC(=O)NCCc3ccccc3)c2CO1 [CBK267205],177.319
24,Cc1ccc(NC(=S)N2CCCC2C(=O)O)c(C)c1 (stereo not shown) [CBK007148],100
25,CN(C)/N=C\c1cccc(O)c1 [CBK015814],151.869
26,CC(=O)Nc1ccc(-c2nc(-c3ccc(-c4ccccc4)cc3)c(-c3ccc(-c4ccccc4)cc3)[nH]2)cc1 [CBK262620],100

# (further entries)

row,SMILES,% of control remaining [%]
1,O=C1CC(c2ccco2)CC(=O)C1=CNCCN1CCNCC1 (stereo not shown) [CBK263668],118.057
2,NC(=O)COc1ccc(CNC(=O)CN2CCCCCC2)cc1 [CBK306332],136.956
3,OC1(c2ccc(F)cc2)CC2CCC(C1)N2CC1=CCCOC1 (stereo not shown) [CBK282942],72.4979
4,CCn1c(CC2CCN(c3ncc(C#N)c(N)n3)CC2)nn(C)c1=O [CBK306788],108.012
5,CNC(=O)c1oc(-c2ccc(OC)cc2)c(-c2ccc(OC)cc2)c1C(=O)NC [CBK001956],93.9886
6,Cc1ccc(CSCCNS(=O)(=O)c2cccc([N+](=O)[O-])c2)cc1 [CBK267864],83.596
7,Cc1cccc(C(C)(C)C)c1OCCNCCN [CBK265058G],85.291
8,CCCCCCN(CCN1CCOCC1)C(=O)Nc1cc(C)on1 [CBK305147],82.9275
9,CCCCC(=O)N(C)c1c(CC)nc2c(OCCn3cccc3)cccn12 [CBK147785],176.792
10,Cc1c(C(c2ccc3ccccc3c2)c2c(C)n(C)n(-c3ccccc3)c2=O)c(=O)n(-c2ccccc2)n1C [CBK261692],46.4225
11,Cc1ccccc1Nc1nc(N)nc(CN2CCN(C)CC2)n1 [CBK304217],105.153
12,N#Cc1ccc(CN2CCN(S(=O)(=O)c3ccc(-n4cnc(Cl)c4Cl)cc3)CC2)cc1 [CBK062972],87.8256
13,Cn1nc(C2CCCCC2)cc1[C@H]1CN2CC[C@H]1C[C@@H]2CNC(=O)c1ccco1 [CBK289106],116.731
14,Cc1nc(C)c(-c2csc(Nc3ccc(S(N)(=O)=O)cc3)n2)s1 [CBK263292B],105.527
15,O=[N+]([O-])c1ccc2c(c1)C(N1CCOCC1)/C(=C/C1(O)CCCCC1)O2 (stereo not shown) [CBK263200],111.364
16,O=C(Nc1ccccc1[N+](=O)[O-])c1ccc(Cl)c(S(=O)(=O)N2CCC(C(=O)O)CC2)c1 [CBK265180],112.666
17,CN(CC1COCCO1)C(=O)c1cc(Cn2ccc3ccccc32)[nH]n1 (stereo not shown) [CBK307673],108.208
18,O=S(=O)(c1ccccc1)N1C[C@@H]2CCCCN(CC3CC3)[C@@H]2C1 [CBK285501],120.182
19,CCNc1ncc(C(=O)NC(CCn2ccnc2)c2ccccc2)cn1 (stereo not shown) [CBK307066],125.631
20,COc1ccc(CCNS(=O)(=O)c2cc([N+](=O)[O-])ccc2C)cc1OC [CBK267412],133.406
21,COc1ccccc1-c1nccnc1NCc1ccc(OC(F)(F)F)cc1 [CBK036761],114.798
22,O=C(NCCCn1ccnc1)c1cc2ncc(Br)cn2n1 [CBK277080],139.016
23,COc1ccc([C@@]23CC[C@@H](NC(=O)c4ccc(-c5ccccc5)cc4)CC2N(C)CC3)cc1OC (stereo partly shown) [CBK074973T],42.2307
24,CC(=O)NCc1cccc(-c2cc(CO)cnc2-c2ccc(Cl)cc2)c1 [CBK161445],89.6188
25,Cn1ncc(N2CCC(CNC(=O)Cc3ccc(O)c(Cl)c3)C2)cc1=O (stereo not shown) [CBK307689],116.911
26,COc1ccc(OC[C@@H]2C3CCC(C3)N2C(=O)C2CC2)cc1 (stereo partly shown) [CBK284602],120.866

row,SMILES,% of control remaining [%]
1,CS(=O)(=O)N1CC2(CCN(Cc3nc4ccccc4[nH]3)CC2)c2ccccc21 [CBK126672],107.881
2,CC(C)(C)OC(=O)N1CCCC(C(=O)NCCc2ccccn2)C1 (stereo not shown) [CBK304281],97.4433
3,Cc1cc(C2CCCCCN2Cc2c(C)nn(C)c2C)no1 (stereo not shown) [CBK284846],114.092
4,CC(C)c1cccc(C(C)C)c1OCC(O)CN1CCCCC1 (stereo not shown) [CBK003079T],145.397
5,Cc1ccc(C(=O)N2C[C@H]3CC[C@](O)(c4ccc(F)cc4)[C@H]3C2)o1 [CBK285267],121.026
6,CN1C(=O)COc2ccccc2C/C=C/C[C@@H]2[C@H]1CCCN2C(=O)CNS(C)(=O)=O [CBK292079],124.267
7,CC(=O)N1CCc2ccc(NC(=O)c3cncc(-c4ccc(C(=O)N5CCOCC5)cc4)c3)cc21 [CBK160217],119.067
8,COc1ccc(C(O)Cn2c(=N)n(CCN3CCCCC3)c3ccccc32)cc1 (stereo not shown) [CBK262930C],124.399
9,Cc1oc(-c2ccccc2)nc1CCOc1ccc(NC(=O)c2ccc(Cl)cc2Cl)c(C(=O)O)c1 [CBK000168D],106.404
10,CC(C)CNc1nc2c(c(=O)n(Cc3ccccc3)c(=O)n2C)n1Cc1ccccc1 [CBK293946],135.48
11,COc1cccc(-c2cc3c(=S)[nH]ccn3n2)c1 [CBK288437],136.592
12,O=S(=O)(c1ccccc1)N1CCCC1c1cccs1 (stereo not shown) [CBK057002],119.508
13,OCCN1CCN(C2CCN(Cc3ccccc3Cl)CC2)CC1 [CBK264710],116.355
14,CC(=O)N1C[C@@H]2OCC(=O)N(Cc3nccn3C)[C@@H]2C1 [CBK289668],122.713
15,Cc1ccc(-c2nnc(NCc3cnn(C)c3C)o2)c(C)c1 [CBK306166],111.657
16,COc1ccc(C(=O)N2CCC3(CCN(C(=O)Cc4c[nH]cn4)C3)C2)cc1OC (stereo not shown) [CBK131768],108.433
17,CC(C)Cn1c(=O)[nH]c2ncc(-c3ccco3)nc21 [CBK064353],138.978
18,Nc1ncc(-c2cccc(OC(F)(F)F)c2)nc1-c1ccc(F)c(Cl)c1 [CBK064021],79.1826
19,CC(=O)N[C@H](C(=O)N1CCC2(C/C=C/C[C@H]3COCC[C@H]3NC(=O)[C@@H](CC(C)C)NC2=O)CC1)[C@@H](C)OC(C)(C)C [CBK292197],115.444
20,COC(=O)c1ccc(-n2cccn2)c(C#Cc2cccnc2)c1 [CBK284525],159.868
21,CC(Sc1ccccc1)C(=O)NC(C)(C)C (stereo not shown) [CBK026610],110.768
22,CC(Oc1cccc(Cl)c1)C(=O)NN (stereo not shown) [CBK261207],93.433
23,O=C(O)c1[nH]c2ccccc2c1NS(=O)(=O)c1ccc(Br)cc1 [CBK049878],102.012
24,N#C/C(=C\c1cn(-c2ccccc2)nc1-c1ccc(S(=O)(=O)N2CCOCC2)cc1)c1nc2ccccc2c(=O)[nH]1 [CBK266343],211.714

# Source: PMC12040169 (PLOS Biology, 2025)
